Results from the supplement of paper PMC8728848.
The other results are listed elsewhere or left out.

Tests used:
Experiment in all cases: glycan array binding signal (z-score within array); higher = stronger binding
Conditions in all cases: glycan notation: IUPAC condensed, linker removed
Fuc(a1-2)Gal = molecular target: Fuc(a1-2)Gal
Outline: (§1)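 Glycan array data were curated from 3228 arrays in the Consortium for Functional Glycomics database and kept only where the protein sequence was available. Glycan names were converted to IUPAC-condensed notation, and columns mapping to the same glycan were averaged. The binding signal is a within-array Z-score, averaged across arrays of the same protein sequence at different concentrations or buffers and across linkers. Negative Z-scores can be read as non-binding.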

Fuc(a1-2)Gal(b1-3)GalNAc = molecular target: Fuc(a1-2)Gal(b1-3)GalNAc
Outline: as §1

[1] = molecular target: Fuc(a1-2)Gal(b1-3)GalNAc(a1-3)[Fuc(a1-2)]Gal(b1-4)Glc
Outline: as §1

[2] = molecular target: Fuc(a1-2)Gal(b1-3)GalNAc(a1-3)[Fuc(a1-2)]Gal(b1-4)GlcNAc
Outline: as §1

[3] = molecular target: Fuc(a1-2)Gal(b1-3)GalNAc(b1-3)Gal
Outline: as §1

[4] = molecular target: Fuc(a1-2)Gal(b1-3)GalNAc(b1-3)Gal(a1-4)Gal(b1-4)Glc
Outline: as §1

[5] = molecular target: Fuc(a1-2)Gal(b1-3)GalNAc(b1-4)[Neu5Ac(a2-3)]Gal(b1-4)Glc
Outline: as §1

Fuc(a1-2)Gal(b1-3)GlcNAc = molecular target: Fuc(a1-2)Gal(b1-3)GlcNAc
Outline: as §1

[6] = molecular target: Fuc(a1-2)Gal(b1-3)GlcNAc(b1-2)Man(a1-3)[Fuc(a1-2)Gal(b1-3)GlcNAc(b1-2)Man(a1-6)]Man(b1-4)GlcNAc(b1-4)GlcNAc
Outline: as §1

[7] = molecular target: Fuc(a1-2)Gal(b1-3)GlcNAc(b1-2)Man(a1-3)[Fuc(a1-2)Gal(b1-3)GlcNAc(b1-2)Man(a1-6)]Man(b1-4)GlcNAc(b1-4)[Fuc(a1-6)]GlcNAc
Outline: as §1

[8] = molecular target: Fuc(a1-2)Gal(b1-3)GlcNAc(b1-3)Gal(b1-4)Glc
Outline: as §1

[9] = molecular target: Fuc(a1-2)Gal(b1-3)GlcNAc(b1-3)GalNAc
Outline: as §1

[10] = molecular target: Fuc(a1-2)Gal(b1-3)GlcNAc(b1-3)[Fuc(a1-2)Gal(b1-3)GlcNAc(b1-6)]GalNAc
Outline: as §1

[11] = molecular target: Fuc(a1-2)Gal(b1-3)GlcNAc(b1-3)[Gal(b1-4)GlcNAc(b1-6)]Gal(b1-4)Glc
Outline: as §1

[12] = molecular target: Fuc(a1-2)Gal(b1-3)GlcNAc(b1-3)[Neu5Ac(a2-6)Gal(b1-4)GlcNAc(b1-6)]Gal(b1-4)Glc
Outline: as §1

[13] = molecular target: Fuc(a1-2)Gal(b1-3)GlcNAc6S
Outline: as §1

[14] = molecular target: Fuc(a1-2)Gal(b1-3)[Fuc(a1-4)]GlcNAc
Outline: as §1

[15] = molecular target: Fuc(a1-2)Gal(b1-3)[Fuc(a1-4)]GlcNAc(b1-2)Man(a1-3)[Fuc(a1-2)Gal(b1-3)[Fuc(a1-4)]GlcNAc(b1-2)Man(a1-3)]Man(b1-4)GlcNAc(b1-4)GlcNAc
Outline: as §1

[16] = molecular target: Fuc(a1-2)Gal(b1-3)[Fuc(a1-4)]GlcNAc(b1-2)Man(a1-3)[Fuc(a1-2)Gal(b1-3)[Fuc(a1-4)]GlcNAc(b1-2)Man(a1-6)]Man(b1-4)GlcNAc(b1-4)[Fuc(a1-6)]GlcNAc(b1-4)[Fuc(a1-6)]GlcNAc
Outline: as §1

[17] = molecular target: Fuc(a1-2)Gal(b1-3)[Fuc(a1-4)]GlcNAc(b1-3)[Fuc(a1-3)[Gal(b1-4)]GlcNAc(b1-6)]Gal(b1-4)Glc
Outline: as §1

[18] = molecular target: Fuc(a1-2)Gal(b1-3)[Fuc(a1-4)]GlcNAc(b1-3)[Gal(b1-4)GlcNAc(b1-6)]Gal(b1-4)Glc
Outline: as §1

Fuc(a1-2)Gal(b1-4)Glc = molecular target: Fuc(a1-2)Gal(b1-4)Glc
Outline: as §1

Fuc(a1-2)Gal(b1-4)Glc6S = molecular target: Fuc(a1-2)Gal(b1-4)Glc6S
Outline: as §1

Fuc(a1-2)Gal(b1-4)GlcNAc = molecular target: Fuc(a1-2)Gal(b1-4)GlcNAc
Outline: as §1

[19] = molecular target: Fuc(a1-2)Gal(b1-4)GlcNAc(b1-2)Man
Outline: as §1

[20] = molecular target: Fuc(a1-2)Gal(b1-4)GlcNAc(b1-2)Man(a1-3)[Fuc(a1-2)Gal(b1-4)GlcNAc(b1-2)Man(a1-6)]Man(b1-4)GlcNAc(b1-4)GlcNAc
Outline: as §1

[21] = molecular target: Fuc(a1-2)Gal(b1-4)GlcNAc(b1-2)Man(a1-3)[Fuc(a1-2)Gal(b1-4)GlcNAc(b1-2)Man(a1-6)]Man(b1-4)GlcNAc(b1-4)[Fuc(a1-6)]GlcNAc
Outline: as §1

[22] = molecular target: Fuc(a1-2)Gal(b1-4)GlcNAc(b1-2)[Fuc(a1-2)Gal(b1-4)GlcNAc(b1-4)]Man(a1-3)[Fuc(a1-2)Gal(b1-4)GlcNAc(b1-2)Man(a1-6)]Man(b1-4)GlcNAc(b1-4)GlcNAc
Outline: as §1

[23] = molecular target: Fuc(a1-2)Gal(b1-4)GlcNAc(b1-3)Gal(b1-4)GlcNAc
Outline: as §1

[24] = molecular target: Fuc(a1-2)Gal(b1-4)GlcNAc(b1-3)Gal(b1-4)GlcNAc(b1-2)Man(a1-3)[Fuc(a1-2)Gal(b1-4)GlcNAc(b1-3)Gal(b1-4)GlcNAc(b1-2)Man(a1-6)]Man(b1-4)GlcNAc(b1-4)GlcNAc
Outline: as §1

[25] = molecular target: Fuc(a1-2)Gal(b1-4)GlcNAc(b1-3)Gal(b1-4)GlcNAc(b1-3)Gal(b1-4)GlcNAc
Outline: as §1

[26] = molecular target: Fuc(a1-2)Gal(b1-4)GlcNAc(b1-3)GalNAc
Outline: as §1

[27] = molecular target: Fuc(a1-2)Gal(b1-4)GlcNAc(b1-3)[Fuc(a1-2)Gal(b1-4)GlcNAc(b1-6)]GalNAc
Outline: as §1

[28] = molecular target: Fuc(a1-2)Gal(b1-4)GlcNAc(b1-3)[Fuc(a1-3)[Gal(b1-4)]GlcNAc(b1-6)]Gal(b1-4)Glc
Outline: as §1

[29] = molecular target: Fuc(a1-2)Gal(b1-4)GlcNAc(b1-6)GalNAc
Outline: as §1

[30] = molecular target: Fuc(a1-2)Gal(b1-4)GlcNAc6S
Outline: as §1

[31] = molecular target: Fuc(a1-2)Gal(b1-4)[Fuc(a1-3)]GlcNAc
Outline: as §1

[32] = molecular target: Fuc(a1-2)Gal(b1-4)[Fuc(a1-3)]GlcNAc(b1-2)Man(a1-3)[Fuc(a1-2)Gal(b1-4)[Fuc(a1-3)]GlcNAc(b1-2)Man(a1-6)]Man(b1-4)GlcNAc(b1-4)[Fuc(a1-6)]GlcNAc
Outline: as §1

[33] = molecular target: Fuc(a1-2)Gal(b1-4)[Fuc(a1-3)]GlcNAc(b1-2)[Fuc(a1-2)Gal(b1-4)[Fuc(a1-3)]GlcNAc(b1-4)]Man(a1-3)[Fuc(a1-2)Gal(b1-4)[Fuc(a1-3)]GlcNAc(b1-2)Man(a1-6)]Man(b1-4)GlcNAc(b1-4)GlcNAc
Outline: as §1

[34] = molecular target: Fuc(a1-2)Gal(b1-4)[Fuc(a1-3)]GlcNAc(b1-3)Gal(b1-4)[Fuc(a1-3)]GlcNAc
Outline: as §1

[35] = molecular target: Fuc(a1-2)Gal(b1-4)[Fuc(a1-3)]GlcNAc(b1-3)Gal(b1-4)[Fuc(a1-3)]GlcNAc(b1-3)Gal(b1-4)[Fuc(a1-3)]GlcNAc
Outline: as §1

[36] = molecular target: Fuc(a1-2)Gal(b1-4)[Fuc(a1-3)]GlcNAc(b1-3)GalNAc
Outline: as §1

[37] = molecular target: Fuc(a1-2)Gal(b1-4)[Fuc(a1-3)]GlcNAc(b1-3)[Neu5Ac(a2-6)Gal(b1-4)GlcNAc(b1-6)]Gal(b1-4)Glc
Outline: as §1

[38] = molecular target: Fuc(a1-2)Gal3S(b1-4)GlcNAc
Outline: as §1

[39] = molecular target: Fuc(a1-2)Gal6S(b1-3)GlcNAc
Outline: as §1

B1: Aap brpt (Staphylococcus epidermidis) (protein)
chain: VDGDPITSTEEIPFDKKREFDPNLAPGTEKVVQKGEPGTKTITTPTTKNPLTGEKVGEGEPTEKITKQPVDEIVHYGGEEIKTGHKDEFDPNAPKGSQTTQPGKPGVKNPDTGEVVTPPVDDVTKYGPVDGDPITSTEEIPFDKKREFDPNLAPGTEKVVQKGEPGTKTITTPTTKNPLTGEKVGEGEPTEKITKQPVDEIVHYGGEEIKPGHKDEFDPNAPKGSQEDVPGKPGVKNPDTGEVVTPPVDDVTKYGPVDGDSITSTEEIPFDKKREFDPNLAPGTEKVVQKGEPGTKTITTPTTKNPLTGEKVGEGEPTEKITKQPVDEIVHYGGEQIPQGHKDEFDPNAPVDSKTEVPGKPGVKNPDTGEVVTPPVDDVTKYGPVDGDSITSTEEIPFDKKREFDPNLAPGTEKVVQKGEPGTKTITTPTTKNPLTGEKVGEGKSTEKVTKQPVDEIVEYGPTK
glycan array binding signal (z-score) (Fuc(a1-2)Gal): 0.249 | glycan array binding signal (z-score) (Fuc(a1-2)Gal(b1-3)GalNAc): -1 | glycan array binding signal (z-score) [1]: 1.2 | glycan array binding signal (z-score) [2]: 1.13 | glycan array binding signal (z-score) [3]: -0.739 | glycan array binding signal (z-score) [4]: 0.375 | glycan array binding signal (z-score) [5]: -0.026 | glycan array binding signal (z-score) (Fuc(a1-2)Gal(b1-3)GlcNAc): -0.441 | glycan array binding signal (z-score) [6]: -0.377 | glycan array binding signal (z-score) [7]: -1.22 | glycan array binding signal (z-score) [8]: 0.714 | glycan array binding signal (z-score) [9]: -0.282 | glycan array binding signal (z-score) [10]: 0.721 | glycan array binding signal (z-score) [11]: 0.337 | glycan array binding signal (z-score) [12]: -1.43 | glycan array binding signal (z-score) [13]: 1.76 | glycan array binding signal (z-score) [14]: 0.474 | glycan array binding signal (z-score) [15]: -0.504 | glycan array binding signal (z-score) [16]: 0.352 | glycan array binding signal (z-score) [17]: 0.248 | glycan array binding signal (z-score) [18]: -0.192 | glycan array binding signal (z-score) (Fuc(a1-2)Gal(b1-4)Glc): 1.19 | glycan array binding signal (z-score) (Fuc(a1-2)Gal(b1-4)Glc6S): -0.576 | glycan array binding signal (z-score) (Fuc(a1-2)Gal(b1-4)GlcNAc): -0.952 | glycan array binding signal (z-score) [19]: -0.269 | glycan array binding signal (z-score) [20]: -0.497 | glycan array binding signal (z-score) [21]: -0.329 | glycan array binding signal (z-score) [22]: 0.106 | glycan array binding signal (z-score) [23]: -0.45 | glycan array binding signal (z-score) [24]: -1.91 | glycan array binding signal (z-score) [25]: 0.152 | glycan array binding signal (z-score) [26]: -0.637 | glycan array binding signal (z-score) [27]: 0.069 | glycan array binding signal (z-score) [28]: 0.44 | glycan array binding signal (z-score) [29]: 0.068 | glycan array binding signal (z-score) [30]: 0.538 | glycan array binding signal (z-score) [31]: 1.5 | glycan array binding signal (z-score) [32]: -2.06 | glycan array binding signal (z-score) [33]: 1.57 | glycan array binding signal (z-score) [34]: -0.951 | glycan array binding signal (z-score) [35]: 0.423 | glycan array binding signal (z-score) [36]: 0.691 | glycan array binding signal (z-score) [37]: -1.18 | glycan array binding signal (z-score) [38]: 0.096 | glycan array binding signal (z-score) [39]: -0.658
